# The list shows only some results of the screen, not a fair sample: its compounds were picked by chemical class. Not every dose and run of a compound is shown. T/C is the treated group as % of the vehicle group. Where survival is the endpoint, this PubChem deposit counts one and a half times the control or more as active, and values a quarter to a half above the control carry no call in these data; other NCI protocols may use other cut-offs. Schedule codes are those of the source, taken here to give the interval after Q, in days (D) or hours (H), and the number of doses after X. Some schedules carry Z or #; the key to these is not given. Some T/C values carry the count of animals alive at the toxicity check (mostly the fifth day); without a count or a note in brackets, all were alive then.
# Test system: CD2F1 mice, L1210 leukemia sc, survival T/C
# Experiment: NCI In Vivo Anticancer Drug Screen. Data for tumor model L1210 Leukemia (subcutaneous) in CD2F1 (CDF1) mice
# Settings: higher T/C = longer survival
# Protocol: The antitumor activity of compounds was measured in mice bearing transplantable tumors. Survival or tumor size were measured and the results are expressed as the measurement made in the treated group (T) divided by the measurement made in the vehicle treated control group (C). The tumor model used in this assay is L1210 Leukemia (subcutaneous) in CD2F1 (CDF1) mice
structure (smiles),measurement,setting,value
NC(=O)c1[nH]cnc1/N=N\N(CCCl)CCCl,T/C,"T/C endpoint: mean survival time, dose: 50.0 mg/kg/injection, schedule: Q01DX001 (sc), vehicle: steroid suspending solution",127 % of control
same,T/C,"T/C endpoint: mean survival time, dose: 100.0 mg/kg/injection, schedule: Q01DX001 (sc), vehicle: steroid suspending solution",139 % of control
same,T/C,"T/C endpoint: mean survival time, dose: 200.0 mg/kg/injection, schedule: Q01DX001 (sc), vehicle: steroid suspending solution",172 % of control
same,T/C,"T/C endpoint: mean survival time, dose: 400.0 mg/kg/injection, schedule: Q01DX001 (sc), vehicle: steroid suspending solution",218 % of control
same,T/C,"T/C endpoint: mean survival time, dose: 800.0 mg/kg/injection, schedule: Q01DX001 (sc), vehicle: steroid suspending solution",213 % of control
same,T/C,"T/C endpoint: median survival time, dose: 1.56 mg/kg/injection, schedule: Q01DX009 (ip), vehicle: saline with Tween-80",103 % of control
same,T/C,"T/C endpoint: median survival time, dose: 3.13 mg/kg/injection, schedule: Q01DX009 (ip), vehicle: saline with Tween-80",104 % of control
same,T/C,"T/C endpoint: median survival time, dose: 6.25 mg/kg/injection, schedule: Q01DX009 (ip), vehicle: saline with Tween-80",106 % of control
same,T/C,"T/C endpoint: median survival time, dose: 12.5 mg/kg/injection, schedule: Q01DX009 (ip), vehicle: saline + alcohol",151 % of control
same,T/C,"T/C endpoint: median survival time, dose: 12.5 mg/kg/injection, schedule: Q01DX009 (ip), vehicle: saline with Tween-80",116 % of control
same,T/C,"T/C endpoint: median survival time, dose: 12.5 mg/kg/injection, schedule: Q01DX009 (sc), vehicle: saline + alcohol",123 % of control
same,T/C,"T/C endpoint: median survival time, dose: 12.5 mg/kg/injection, schedule: Q01DX009 (sc), vehicle: saline",113 % of control [9 of 10 alive]
same,T/C,"T/C endpoint: median survival time, dose: 25.0 mg/kg/injection, schedule: Q01DX009 (ip), vehicle: saline + alcohol",202 % of control [9 of 10 alive]
same,T/C,"T/C endpoint: median survival time, dose: 25.0 mg/kg/injection, schedule: Q01DX009 (ip), vehicle: saline with Tween-80",164 % of control
same,T/C,"T/C endpoint: median survival time, dose: 25.0 mg/kg/injection, schedule: Q01DX009 (sc), vehicle: saline + alcohol",202 % of control
same,T/C,"T/C endpoint: median survival time, dose: 25.0 mg/kg/injection, schedule: Q01DX009 (sc), vehicle: saline",125 % of control
same,T/C,"T/C endpoint: median survival time, dose: 25.0 mg/kg/injection, schedule: Q01DX Z (sc), vehicle: carboxymethylcellulose (CMC)",170 % of control
same,T/C,"T/C endpoint: median survival time, dose: 33.3 mg/kg/injection, schedule: Q01DX009 (sc), vehicle: saline with Tween-80, evaluated on day 30",229 % of control
same,T/C,"T/C endpoint: median survival time, dose: 33.3 mg/kg/injection, schedule: Q01DX009 (sc), vehicle: saline with Tween-80, evaluated on day 45",218 % of control
same,T/C,"T/C endpoint: median survival time, dose: 50.0 mg/kg/injection, schedule: Q01DX001 (sc), vehicle: steroid suspending solution, evaluated on day 6",126 % of control
same,T/C,"T/C endpoint: median survival time, dose: 50.0 mg/kg/injection, schedule: Q01DX001 (sc), vehicle: steroid suspending solution, evaluated on day 27",127 % of control
same,T/C,"T/C endpoint: median survival time, dose: 50.0 mg/kg/injection, schedule: Q01DX009 (ip), vehicle: saline + alcohol",261 % of control
same,T/C,"T/C endpoint: median survival time, dose: 50.0 mg/kg/injection, schedule: Q01DX009 (ip), vehicle: saline with Tween-80",172 % of control
same,T/C,"T/C endpoint: median survival time, dose: 50.0 mg/kg/injection, schedule: Q01DX009 (sc), vehicle: saline + alcohol",224 % of control
same,T/C,"T/C endpoint: median survival time, dose: 50.0 mg/kg/injection, schedule: Q01DX009 (sc), vehicle: saline with Tween-80, evaluated on day 30",247 % of control
same,T/C,"T/C endpoint: median survival time, dose: 50.0 mg/kg/injection, schedule: Q01DX009 (sc), vehicle: saline with Tween-80, evaluated on day 45",252 % of control
same,T/C,"T/C endpoint: median survival time, dose: 50.0 mg/kg/injection, schedule: Q01DX009 (sc), vehicle: saline",281 % of control
same,T/C,"T/C endpoint: median survival time, dose: 50.0 mg/kg/injection, schedule: Q01DX Z (sc), vehicle: carboxymethylcellulose (CMC)",358 % of control
same,T/C,"T/C endpoint: median survival time, dose: 66.7 mg/kg/injection, schedule: Q01DX009 (ip), vehicle: saline with Tween-80",301 % of control
same,T/C,"T/C endpoint: median survival time, dose: 75.0 mg/kg/injection, schedule: Q01DX009 (ip), vehicle: saline with Tween-80",132 % of control
same,T/C,"T/C endpoint: median survival time, dose: 75.0 mg/kg/injection, schedule: Q01DX009 (sc), vehicle: saline with Tween-80, evaluated on day 30",332 % of control
same,T/C,"T/C endpoint: median survival time, dose: 75.0 mg/kg/injection, schedule: Q01DX009 (sc), vehicle: saline with Tween-80, evaluated on day 45",260 % of control
same,T/C,"T/C endpoint: median survival time, dose: 100.0 mg/kg/injection, schedule: Q01DX001 (sc), vehicle: steroid suspending solution, evaluated on day 6",132 % of control
same,T/C,"T/C endpoint: median survival time, dose: 100.0 mg/kg/injection, schedule: Q01DX001 (sc), vehicle: steroid suspending solution, evaluated on day 27",133 % of control
same,T/C,"T/C endpoint: median survival time, dose: 100.0 mg/kg/injection, schedule: Q01DX009 (ip), vehicle: saline + alcohol",327 % of control
same,T/C,"T/C endpoint: median survival time, dose: 100.0 mg/kg/injection, schedule: Q01DX009 (ip), vehicle: saline with Tween-80",232 % of control
same,T/C,"T/C endpoint: median survival time, dose: 100.0 mg/kg/injection, schedule: Q01DX009 (sc), vehicle: saline + alcohol",157 % of control
same,T/C,"T/C endpoint: median survival time, dose: 100.0 mg/kg/injection, schedule: Q01DX009 (sc), vehicle: saline with Tween-80",262 % of control
same,T/C,"T/C endpoint: median survival time, dose: 100.0 mg/kg/injection, schedule: Q01DX009 (sc), vehicle: saline",261 % of control
same,T/C,"T/C endpoint: median survival time, dose: 100.0 mg/kg/injection, schedule: Q01DX Z (sc), vehicle: carboxymethylcellulose (CMC)",276 % of control
same,T/C,"T/C endpoint: median survival time, dose: 150.0 mg/kg/injection, schedule: Q01DX009 (ip), vehicle: saline with Tween-80",161 % of control
same,T/C,"T/C endpoint: median survival time, dose: 200.0 mg/kg/injection, schedule: Q01DX001 (sc), vehicle: steroid suspending solution, evaluated on day 6",153 % of control
same,T/C,"T/C endpoint: median survival time, dose: 200.0 mg/kg/injection, schedule: Q01DX001 (sc), vehicle: steroid suspending solution, evaluated on day 27",155 % of control
same,T/C,"T/C endpoint: median survival time, dose: 200.0 mg/kg/injection, schedule: Q01DX009 (ip), vehicle: saline + alcohol",136 % of control
same,T/C,"T/C endpoint: median survival time, dose: 200.0 mg/kg/injection, schedule: Q01DX009 (sc), vehicle: saline + alcohol",128 % of control
same,T/C,"T/C endpoint: median survival time, dose: 200.0 mg/kg/injection, schedule: Q01DX009 (sc), vehicle: saline with Tween-80",195 % of control
same,T/C,"T/C endpoint: median survival time, dose: 200.0 mg/kg/injection, schedule: Q01DX009 (sc), vehicle: saline",215 % of control
same,T/C,"T/C endpoint: median survival time, dose: 200.0 mg/kg/injection, schedule: Q01DX Z (sc), vehicle: carboxymethylcellulose (CMC)",217 % of control
same,T/C,"T/C endpoint: median survival time, dose: 400.0 mg/kg/injection, schedule: Q01DX001 (sc), vehicle: steroid suspending solution, evaluated on day 6",215 % of control
same,T/C,"T/C endpoint: median survival time, dose: 400.0 mg/kg/injection, schedule: Q01DX001 (sc), vehicle: steroid suspending solution, evaluated on day 27",216 % of control
same,T/C,"T/C endpoint: median survival time, dose: 400.0 mg/kg/injection, schedule: Q01DX009 (ip), vehicle: saline + alcohol",86 % of control [9 of 10 alive]
same,T/C,"T/C endpoint: median survival time, dose: 400.0 mg/kg/injection, schedule: Q01DX009 (sc), vehicle: saline + alcohol",107 % of control
same,T/C,"T/C endpoint: median survival time, dose: 400.0 mg/kg/injection, schedule: Q01DX009 (sc), vehicle: saline with Tween-80, evaluated on day 30",151 % of control
same,T/C,"T/C endpoint: median survival time, dose: 400.0 mg/kg/injection, schedule: Q01DX009 (sc), vehicle: saline with Tween-80, evaluated on day 60",169 % of control
same,T/C,"T/C endpoint: median survival time, dose: 400.0 mg/kg/injection, schedule: Q01DX009 (sc), vehicle: saline",157 % of control
same,T/C,"T/C endpoint: median survival time, dose: 400.0 mg/kg/injection, schedule: Q01DX Z (sc), vehicle: carboxymethylcellulose (CMC)",176 % of control
same,T/C,"T/C endpoint: median survival time, dose: 600.0 mg/kg/injection, schedule: Q01DX009 (sc), vehicle: saline with Tween-80, evaluated on day 30",142 % of control
same,T/C,"T/C endpoint: median survival time, dose: 600.0 mg/kg/injection, schedule: Q01DX009 (sc), vehicle: saline with Tween-80, evaluated on day 60",171 % of control
same,T/C,"T/C endpoint: median survival time, dose: 800.0 mg/kg/injection, schedule: Q01DX001 (sc), vehicle: steroid suspending solution, evaluated on day 6",212 % of control
same,T/C,"T/C endpoint: median survival time, dose: 800.0 mg/kg/injection, schedule: Q01DX001 (sc), vehicle: steroid suspending solution, evaluated on day 27",216 % of control
same,T/C,"T/C endpoint: median survival time, dose: 800.0 mg/kg/injection, schedule: Q01DX009 (sc), vehicle: saline with Tween-80",139 % of control
same,T/C,"T/C endpoint: median survival time, dose: 1000.0 mg/kg/injection, schedule: Q01DX009 (sc), vehicle: saline with Tween-80",127 % of control
